# The list shows a part of the results.
# Columns and labels:
# Assay in all cases: glycan array binding signal (z-score within array); higher = stronger binding
# Settings in all cases: glycan notation: IUPAC condensed, linker removed
# [1] = target: GlcNAc(b1-6)Gal(b1-4)GlcNAc
# Outline: (§1)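 The binding signal is a Z-score computed within each array. Data were drawn from 3228 arrays in the Consortium for Functional Glycomics database, restricted to those with a known protein sequence. Scores were averaged over arrays of the same protein sequence at different concentrations or buffers, and over linkers, and negative values can be taken as non-binding.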
# [2] = target: GlcNAc(b1-6)GalNAc
# Outline: as §1
# [3] = target: GlcNAc3Prop(b1-4)GlcNAc
# Outline: as §1
# [4] = target: GlcNAc6S(b1-3)Gal(b1-4)GlcNAc
# Outline: as §1
# [5] = target: Kdn(a2-3)Gal(b1-3)GalNAc
# Outline: as §1
# [6] = target: Kdn(a2-3)Gal(b1-3)GlcNAc
# Outline: as §1
# [7] = target: Kdn(a2-3)Gal(b1-4)Glc
# Outline: as §1
# [8] = target: Kdn(a2-3)Gal(b1-4)GlcNAc
# Outline: as §1
# [9] = target: Kdn(a2-3)Gal(b1-4)[Fuc(a1-3)]GlcNAc
# Outline: as §1
# [10] = target: Kdn(a2-6)Gal(b1-4)GlcNAc
# Outline: as §1
# [11] = target: Man(a1-2)Man(a1-2)Man(a1-3)Man
# Outline: as §1
# [12] = target: Man(a1-2)Man(a1-2)Man(a1-6)[Man(a1-3)]Man
# Outline: as §1
# [13] = target: Man(a1-2)Man(a1-3)Man
# Outline: as §1
# [14] = target: Man(a1-2)Man(a1-3)[Man(a1-2)Man(a1-6)]Man
# Outline: as §1
# [15] = target: Man(a1-2)Man(a1-3)[Man(a1-2)Man(a1-6)]Man(a1-6)[Man(a1-2)Man(a1-2)Man(a1-3)]Man
# Outline: as §1
# [16] = target: Man(a1-2)Man(a1-3)[Man(a1-2)Man(a1-6)]Man(a1-6)[Man(a1-2)Man(a1-2)Man(a1-3)]Man(b1-4)GlcNAc(b1-4)GlcNAc
# Outline: as §1
# [17] = target: Man(a1-2)Man(a1-3)[Man(a1-2)Man(a1-6)]Man(a1-6)[Man(a1-3)[Man(a1-6)]Man(a1-6)]Man(b1-4)GlcNAc(b1-4)GlcNAc
# Outline: as §1
# [18] = target: Man(a1-2)Man(a1-3)[Man(a1-6)]Man(a1-6)[Man(a1-2)Man(a1-3)]Man(b1-4)GlcNAc(b1-4)GlcNAc
# Outline: as §1
# [19] = target: Man(a1-2)Man(a1-6)[Man(a1-3)]Man(a1-6)[Man(a1-2)Man(a1-2)Man(a1-3)]Man
# Outline: as §1
# [20] = target: Man(a1-2)Man(a1-6)[Man(a1-3)]Man(a1-6)[Man(a1-2)Man(a1-2)Man(a1-3)]Man(b1-4)GlcNAc(b1-4)GlcNAc
# Outline: as §1
# [21] = target: Man(a1-3)[Man(a1-6)]Man
# Outline: as §1
# [22] = target: Man(a1-3)[Man(a1-6)]Man(a1-6)[Man(a1-2)Man(a1-3)]Man(b1-4)GlcNAc(b1-4)GlcNAc
# Outline: as §1
# [23] = target: Man(a1-3)[Man(a1-6)]Man(a1-6)[Man(a1-3)]Man
# Outline: as §1
# [24] = target: Man(a1-3)[Man(a1-6)]Man(a1-6)[Man(a1-3)]Man(b1-4)GlcNAc(b1-4)GlcNAc
# Outline: as §1
# [25] = target: Man(a1-3)[Man(a1-6)]Man(b1-4)GlcNAc(b1-4)GlcNAc
# Outline: as §1
# [26] = target: Man(a1-3)[Man(a1-6)]Man(b1-4)GlcNAc(b1-4)[Fuc(a1-6)]GlcNAc
# Outline: as §1
# [27] = target: Man(a1-6)Man
# Outline: as §1
# [28] = target: Man(b1-4)GlcNAc
# Outline: as §1
# [29] = target: MurNAc(b1-4)GlcNAc
# Outline: as §1
# [30] = target: Neu5Ac(a2-3)Gal
# Outline: as §1
# [31] = target: Neu5Ac(a2-3)Gal(b1-3)GalNAc
# Outline: as §1
# [32] = target: Neu5Ac(a2-3)Gal(b1-3)GalNAc(b1-3)Gal(a1-4)Gal(b1-4)Glc
# Outline: as §1
# [33] = target: Neu5Ac(a2-3)Gal(b1-3)GalNAc(b1-4)[Neu5Ac(a2-3)]Gal(b1-4)Glc
# Outline: as §1
# [34] = target: Neu5Ac(a2-3)Gal(b1-3)GalNAc(b1-4)[Neu5Ac(a2-8)Neu5Ac(a2-3)]Gal(b1-4)Glc
# Outline: as §1
# [35] = target: Neu5Ac(a2-3)Gal(b1-3)GalNAc6S
# Outline: as §1
# [36] = target: Neu5Ac(a2-3)Gal(b1-3)GlcNAc
# Outline: as §1
# [37] = target: Neu5Ac(a2-3)Gal(b1-3)GlcNAc(b1-2)Man
# Outline: as §1
# [38] = target: Neu5Ac(a2-3)Gal(b1-3)GlcNAc(b1-2)Man(a1-3)[GlcNAc(b1-4)][Neu5Ac(a2-3)Gal(b1-3)GlcNAc(b1-2)Man(a1-6)]Man(b1-4)GlcNAc(b1-4)GlcNAc
# Outline: as §1
binder,measurement,setting,value
"CRT-1 (Homo sapiens), P27797 (protein) MLLSVPLLLGLLGLAVAEPAVYFKEQFLDGDGWTSRWIESKHKSDFGKFVLSSGKFYGDEEKDKGLQTSQDARFYALSASFEPFSNKGQTLVVQFTVKHEQNIDCGGGYVKLFPNSLDQTDMHGDSEYNIMFGPDICGPGTKKVHVIFNYKGKNVLINKDIRCKDDEFTHLYTLIVRPDNTYEVKIDNSQVESGSLEDDWDFLPPKKIKDPDASKPEDWDERAKIDDPTDSKPEDWDKPEHIPDPDAKKPEDWDEEMDGEWEPPVIQNPEYKGEWKPRQIDNPDYKGTWIHPEIDNPEYSPDPSIYAYDNFGVLGLDLWQVKSGTIFDNFLITNDEAYAEEFGNETWGVTKAAEKQMKDKQDEEQRLKEEEEDKKRKEEEEAEDKEDDEDKDEDEEDEEDKEEDEEEDVPGQAKDEL",glycan array binding signal (z-score),[1],-0.309
same,glycan array binding signal (z-score),[2],-0.411
same,glycan array binding signal (z-score),[3],-0.345
same,glycan array binding signal (z-score),[4],0.689
same,glycan array binding signal (z-score),[5],0.048
same,glycan array binding signal (z-score),[6],-0.19
same,glycan array binding signal (z-score),[7],-0.238
same,glycan array binding signal (z-score),[8],0.277
same,glycan array binding signal (z-score),[9],0.352
same,glycan array binding signal (z-score),[10],-0.236
same,glycan array binding signal (z-score),[11],-0.312
same,glycan array binding signal (z-score),[12],-0.307
same,glycan array binding signal (z-score),[13],-0.517
same,glycan array binding signal (z-score),[14],-0.932
same,glycan array binding signal (z-score),[15],-0.402
same,glycan array binding signal (z-score),[16],0.02
same,glycan array binding signal (z-score),[17],-0.091
same,glycan array binding signal (z-score),[18],-0.4
same,glycan array binding signal (z-score),[19],-0.219
same,glycan array binding signal (z-score),[20],-0.187
same,glycan array binding signal (z-score),[21],-0.142
same,glycan array binding signal (z-score),[22],0.215
same,glycan array binding signal (z-score),[23],0.061
same,glycan array binding signal (z-score),[24],-0.022
same,glycan array binding signal (z-score),[25],-0.177
same,glycan array binding signal (z-score),[26],0.443
same,glycan array binding signal (z-score),[27],0.065
same,glycan array binding signal (z-score),[28],-0.39
same,glycan array binding signal (z-score),[29],-0.604
same,glycan array binding signal (z-score),[30],-0.226
same,glycan array binding signal (z-score),[31],-0.026
same,glycan array binding signal (z-score),[32],-0.264
same,glycan array binding signal (z-score),[33],0.04
same,glycan array binding signal (z-score),[34],-0.48
same,glycan array binding signal (z-score),[35],-0.642
same,glycan array binding signal (z-score),[36],-0.244
same,glycan array binding signal (z-score),[37],0.718
same,glycan array binding signal (z-score),[38],-0.793

# An excerpt of these results, tab-delimited.
binder	measurement	setting	value
CRT-1 (Homo sapiens), P27797 (protein) MLLSVPLLLGLLGLAVAEPAVYFKEQFLDGDGWTSRWIESKHKSDFGKFVLSSGKFYGDEEKDKGLQTSQDARFYALSASFEPFSNKGQTLVVQFTVKHEQNIDCGGGYVKLFPNSLDQTDMHGDSEYNIMFGPDICGPGTKKVHVIFNYKGKNVLINKDIRCKDDEFTHLYTLIVRPDNTYEVKIDNSQVESGSLEDDWDFLPPKKIKDPDASKPEDWDERAKIDDPTDSKPEDWDKPEHIPDPDAKKPEDWDEEMDGEWEPPVIQNPEYKGEWKPRQIDNPDYKGTWIHPEIDNPEYSPDPSIYAYDNFGVLGLDLWQVKSGTIFDNFLITNDEAYAEEFGNETWGVTKAAEKQMKDKQDEEQRLKEEEEDKKRKEEEEAEDKEDDEDKDEDEEDEEDKEEDEEEDVPGQAKDEL	glycan array binding signal (z-score)	[2]	-0.411
same	glycan array binding signal (z-score)	[7]	-0.238

# From the supplement of paper PMC8728848
